# Test results taken from PubChem BioAssay AID2685 (National Center for Advancing Translational Sciences (NCATS), 2010).
# This is one part of the list. These are further read-outs of the screen, such as a control signal, another cell line or another target. No call is given for them. The list favours compounds with an active or inconclusive main result. Words in brackets tell the shape of the fitted curve; partial curves, single points and poor fits give uncertain potencies.
# Assay: qHTS Assay for Lipid Storage Modulators in Drosophila S3 Cells;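 for cell number change: cells counted by Cell Tracker Red CMTPX staining in the red channel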
# Conditions: BODIPY lipid droplet fluorescence, 18-24 h; for cell number change: measured here: cell count max response, cells fed with added oleic acid
# In short: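 Drosophila S3 cells got compounds at several concentrations plus oleic acid (400 uM solution). Laser-scanning cytometry with 488 nm excitation read lipid droplets at 500-530 nm and cells at 575-640 nm. Percent activity was relative to 20 uM Triacsin C.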
# [1] = measured here: lipid fluorescence (Fed channel) AC50, cells fed with added oleic acid
# [2] = measured here: cell number channel AC50, cells fed with added oleic acid
Compound,cell number change,AC50 [1],AC50 [2]
CCOC(=O)CC1COCCN1Cc1cn(C)nc1-c1ccccc1F (stereo not given),-8.92%,"1.3 µM [falling, partial curve]",
O=C1CCN(S(=O)(=O)c2ccccc2)C2CCCCC12 (stereo not given),-134%,"23.1 µM [falling, partial curve]","25.9 µM [falling, partial curve]"
O=C1COc2ccc(C(=O)CSc3nnc(Cc4ccccc4)o3)cc2N1,27.2%,"10.3 µM [rising, partial curve]",
Cc1nnc(NC(=O)CSc2nnc(NC(=O)C(C)(C)C)s2)s1,-3.95%,"0.00517 µM [falling, full curve, poor fit]",
COc1ccc(CNC(=O)CSc2nnnn2-c2ccccc2)cc1,1.67%,"18.4 µM [rising, partial curve]",
CCOc1ccc(-n2c(=O)c3sccc3n(CC(=O)NC3CCCCC3)c2=O)cc1,9.17%,,"3.66 µM [rising, single point]"
COc1cccc(N(CC(=O)NC2CCCCC2)C(=O)CCC(=O)Nc2nccs2)c1,562%,"29.1 µM [rising, partial curve]","20.6 µM [rising, partial curve]"
CC(=O)Nc1ccc(S(=O)(=O)NC2(C(F)(F)F)C(=O)Nc3c2c(=O)[nH]c(=O)n3Cc2ccco2)cc1 (stereo not given),4.18%,"0.146 µM [falling, full curve]",
CCCn1ccc2c(OCC(=O)Nc3ccc(NC(C)=O)cc3)cccc2c1=O,-29.1%,"29.1 µM [falling, single point]","1.64 µM [falling, full curve, poor fit]"
Cc1cc(SCC2=NNC(=O)C2)c(Cl)cc1Cl,29.2%,,
O=C(COc1cccnc1[N+](=O)[O-])NCc1ccc2c(c1)OCO2,10.2%,"3.26 µM [rising, partial curve]",
Fc1ccccc1N1CCN(c2ncnc3nc[nH]c23)CC1,32.7%,"2.06 µM [rising, full curve]","0.164 µM [rising, full curve, poor fit]"
Fc1ccccc1CNc1ccc(Cl)c(Cl)c1,-19.1%,"6.51 µM [rising, partial curve, poor fit]",
COc1ccc(C(C)(C)C)cc1NC(=O)COC(=O)c1nc2nccc(C)n2n1,15%,"16.4 µM [rising, single point]",
COc1ccc(CNC(=O)COC(=O)c2ccc(OCC3CCCO3)cc2)cc1 (stereo not given),-18.7%,"0.0461 µM [falling, full curve]",
CC(C)(C)c1ccc(/C([O-])=C(/C(=S)NCc2ccco2)[n+]2ccccc2)cc1,,"6.51 µM [falling, partial curve]","0.366 µM [falling, full curve]"
CCN(Cc1ccncc1)Cc1ccc(OC)cc1OC,9.82%,"6.51 µM [rising, partial curve]",
CCOC(=O)c1cc2c(=O)n3ccccc3nc2n(CC(C)C)c1=NC(=O)c1ccco1,,,"0.259 µM [rising, full curve, poor fit]"

# Gathered by group, the compounds so far containing an NH in an aromatic ring.
Compound,cell number change,AC50 [1],AC50 [2]
CC(=O)Nc1ccc(S(=O)(=O)NC2(C(F)(F)F)C(=O)Nc3c2c(=O)[nH]c(=O)n3Cc2ccco2)cc1 (stereo not given),4.18%,"0.146 µM [falling, full curve]",
Fc1ccccc1N1CCN(c2ncnc3nc[nH]c23)CC1,32.7%,"2.06 µM [rising, full curve]","0.164 µM [rising, full curve, poor fit]"

# (list continues)

Compound,cell number change,AC50 [1],AC50 [2]
CSc1ncccc1C(=O)N1CCCC(C(=O)c2ccc3ccccc3c2)C1 (stereo not given),-17.2%,"18.4 µM [falling, partial curve, poor fit]",
CC(C)C(=O)Nc1ccc(NC(=O)c2ccco2)cn1,-7.07%,"0.164 µM [falling, full curve, poor fit]",
Cc1cc(Sc2nnc(/N=C/N(C)C)s2)c2ccccc2n1,-18.6%,"29.1 µM [falling, partial curve, poor fit]",
COc1ccc2c(c1)CCCN2C(N)=O,-13.2%,"20.6 µM [falling, single point]",
COc1ccc(NC(=O)c2sc3nc(-c4cccnc4)ccc3c2N)cc1,10.4%,,
CCN1C(=O)c2cccc3c(S(=O)(=O)Nc4ccncc4)ccc1c23,-59.7%,,"16.4 µM [falling, single point]"
COc1ccc(NC(=O)c2ccc3ccccc3n2)cc1S(=O)(=O)N1CCCCC1,15.6%,"0.517 µM [falling, single point]",
COc1ccc(NC(=O)c2ccc3c(=O)n(-c4ccc(OC)cc4OC)c(=S)[nH]c3c2)cc1,-24.3%,"32.6 µM [falling, partial curve, poor fit]",
O=C(NC1CC2CCCC(C1)N2Cc1cccs1)N1CCOCC1 (stereo not given),11.5%,,"3.66 µM [falling, single point]"
CCCOc1ccc2oc(=O)c3c(c2c1)CCCN3C(=O)CN(C)Cc1ccccc1,0.209%,"2.91 µM [rising, single point]",
Cc1ccc(-n2c(SCC(=O)NCc3cccs3)nnc2-c2ccoc2C)cc1,48.9%,,"5.8 µM [rising, partial curve]"
Cc1ccc2[nH]c3c(=O)n(Cc4ccncc4)cnc3c2c1,94.4%,"3.66 µM [rising, partial curve]","6.51 µM [rising, full curve]"
CCOC(=O)N1CCN(C(=O)c2cc(COc3c(F)cccc3F)on2)CC1,-35.4%,,"7.08 µM [falling, full curve, poor fit]"
CCN(C(=O)c1ccc2c(=O)n3c(nc2c1)CCCCC3)c1cc(OC)ccc1OC,-33.1%,"0.731 µM [falling, partial curve]","20.6 µM [falling, single point]"
Cc1ccc(C)c(N(C(=O)c2snc(C(N)=O)c2N)C(C(=O)NCC2CCCO2)c2ccc(C)o2)c1 (stereo not given),10.4%,"0.00461 µM [falling, full curve, poor fit]",
Oc1ccc(Cl)cc1C=NCCc1ccccc1,-39.5%,"0.116 µM [falling, full curve, poor fit]","2.06 µM [falling, full curve]"
O=C(NCCCO)c1cc([N+](=O)[O-])cc2c1C=Cc1ccccc1O2,16.7%,"6.51 µM [rising, single point]","6.51 µM [rising, single point]"
